Test results taken from article PMC8118655.
Results are given in words; binding and its absence hold for the method and conditions named. In cells and extracts the contact can be indirect. Some results given as binding are weak or reduced against the parent protein; the word gives no strength.

Molecular target: T1, ubiquitin domain-containing protein 1 (UBTD1) (human (endogenous in DU145)) (UniProt Q9HAC8)
T1 sequence: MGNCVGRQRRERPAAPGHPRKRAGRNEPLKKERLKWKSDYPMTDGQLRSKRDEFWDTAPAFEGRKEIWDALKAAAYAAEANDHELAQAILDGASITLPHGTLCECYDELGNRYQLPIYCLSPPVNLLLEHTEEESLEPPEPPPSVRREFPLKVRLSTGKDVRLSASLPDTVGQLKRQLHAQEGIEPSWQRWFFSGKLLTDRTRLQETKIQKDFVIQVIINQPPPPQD
Test: co-IP; endogenous proteins, DU145 lysate in NP-40 buffer; UBTD1 as bait, Dynabeads protein A, 4°C; western blot; IgG isotype as negative control

- binding: binds
Substance: Sequestosome 1 (SQSTM1/p62) (from UniProt Q13501 1-440)
